Binding data for one molecule are collected here from article PMC4066782, “The telomerase inhibitor Gno1p/PINX1 activates the helicase Prp43p during ribosome biogenesis” (Nucleic Acids Research, 2014).

Test in all cases: co-IP; IgG sepharose beads precipitate the TAP- or ZZ-tagged protein from total yeast extracts; HA-tagged protein detected by western with anti-HA antibodies
Assay [1] has as its target T1, Utp18p-TAP (S. cerevisiae) (UniProt P40362).
T1 sequence: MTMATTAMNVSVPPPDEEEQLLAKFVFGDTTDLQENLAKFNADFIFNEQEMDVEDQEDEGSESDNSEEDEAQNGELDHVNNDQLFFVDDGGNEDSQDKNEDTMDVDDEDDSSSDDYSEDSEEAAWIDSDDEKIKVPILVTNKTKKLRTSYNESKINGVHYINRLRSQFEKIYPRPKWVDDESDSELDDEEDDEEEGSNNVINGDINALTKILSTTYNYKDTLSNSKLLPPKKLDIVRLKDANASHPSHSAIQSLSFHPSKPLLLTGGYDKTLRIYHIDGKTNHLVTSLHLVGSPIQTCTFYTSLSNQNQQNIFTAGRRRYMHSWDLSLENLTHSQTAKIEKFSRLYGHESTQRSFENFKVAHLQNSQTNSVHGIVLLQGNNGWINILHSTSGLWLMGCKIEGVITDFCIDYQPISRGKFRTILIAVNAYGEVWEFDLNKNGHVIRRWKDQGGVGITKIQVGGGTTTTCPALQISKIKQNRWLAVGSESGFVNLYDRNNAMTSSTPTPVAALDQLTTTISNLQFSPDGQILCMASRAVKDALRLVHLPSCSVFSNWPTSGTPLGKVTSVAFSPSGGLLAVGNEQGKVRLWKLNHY

Assay [2] has as its target T2, Pwp2p-TAP (S. cerevisiae) (UniProt P25635).
T2 sequence: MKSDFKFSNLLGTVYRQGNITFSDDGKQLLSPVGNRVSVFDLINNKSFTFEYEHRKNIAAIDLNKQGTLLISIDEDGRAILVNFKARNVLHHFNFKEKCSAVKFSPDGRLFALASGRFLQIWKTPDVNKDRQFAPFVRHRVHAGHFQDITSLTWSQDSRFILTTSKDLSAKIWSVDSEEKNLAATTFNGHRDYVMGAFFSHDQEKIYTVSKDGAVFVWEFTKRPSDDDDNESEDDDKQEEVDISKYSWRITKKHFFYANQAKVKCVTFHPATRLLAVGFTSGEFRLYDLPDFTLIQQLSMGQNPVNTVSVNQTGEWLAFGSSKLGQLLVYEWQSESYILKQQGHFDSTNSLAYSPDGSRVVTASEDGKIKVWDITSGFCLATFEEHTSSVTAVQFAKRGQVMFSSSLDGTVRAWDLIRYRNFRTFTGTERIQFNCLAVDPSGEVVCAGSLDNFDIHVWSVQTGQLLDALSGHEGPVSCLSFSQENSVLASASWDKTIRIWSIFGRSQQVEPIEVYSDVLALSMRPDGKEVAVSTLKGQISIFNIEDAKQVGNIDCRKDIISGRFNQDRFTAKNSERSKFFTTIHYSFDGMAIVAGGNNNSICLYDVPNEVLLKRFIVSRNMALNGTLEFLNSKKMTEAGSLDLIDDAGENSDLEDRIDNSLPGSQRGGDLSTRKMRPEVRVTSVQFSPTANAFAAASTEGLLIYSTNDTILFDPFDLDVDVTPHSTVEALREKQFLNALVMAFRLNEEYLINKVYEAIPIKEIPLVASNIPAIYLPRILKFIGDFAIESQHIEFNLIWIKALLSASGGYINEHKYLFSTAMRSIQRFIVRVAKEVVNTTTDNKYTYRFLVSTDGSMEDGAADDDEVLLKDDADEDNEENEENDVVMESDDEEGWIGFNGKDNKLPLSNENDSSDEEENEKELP

Assay [3] concerns the target T3, Arx1p-TAP (S. cerevisiae) (UniProt Q03862).
T3 sequence: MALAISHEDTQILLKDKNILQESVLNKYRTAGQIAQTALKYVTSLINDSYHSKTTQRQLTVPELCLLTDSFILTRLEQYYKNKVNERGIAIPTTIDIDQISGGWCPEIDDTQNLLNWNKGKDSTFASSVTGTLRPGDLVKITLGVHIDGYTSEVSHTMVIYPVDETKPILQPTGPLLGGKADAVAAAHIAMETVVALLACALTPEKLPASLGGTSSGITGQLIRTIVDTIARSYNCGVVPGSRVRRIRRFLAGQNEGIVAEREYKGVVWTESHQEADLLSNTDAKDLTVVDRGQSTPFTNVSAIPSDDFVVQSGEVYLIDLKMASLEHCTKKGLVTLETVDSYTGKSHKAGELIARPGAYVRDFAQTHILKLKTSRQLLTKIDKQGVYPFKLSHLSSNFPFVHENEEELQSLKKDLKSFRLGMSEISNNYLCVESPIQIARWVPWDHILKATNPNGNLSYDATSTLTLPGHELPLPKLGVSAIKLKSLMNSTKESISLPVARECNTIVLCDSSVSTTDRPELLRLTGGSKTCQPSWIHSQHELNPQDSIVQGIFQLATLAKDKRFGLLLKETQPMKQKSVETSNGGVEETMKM

No constants are given. Whether binding was seen depends on the method and setting. Binding seen in cells or lysates may run through a third protein. Some results given as binding are weak or reduced against the parent protein; the word gives no strength. Where a sequence is shown, tags or fusion partners need not be part of it.

B1: Gno1p-HA (GNO1-HA-TRP1 cassette, made with plasmid pFA6a-3HA-TRP1) (protein, UniProt P53335 1-271)
chain: MGLAATRTKQRFGLDPRNTAWSNDTSRFGHQFLEKFGWKPGMGLGLSPMNSNTSHIKVSIKDDNVGLGAKLKRKDKKDEFDNGECAGLDVFQRILGRLNGKESKISEELDTQRKQKIIDGKWGIHFVKGEVLASTWDPKTHKLRNYSNAKKRKREGDDSEDEDDDDKEDKDSDKKKHKKHKKHKKDKKKDKKDKKEHKKHKKEEKRLKKEKRAEKTKETKKTSKLKSSESASNIPDAVNTRLSVRSKWIKQKRAALMDSKALNEIFMITND
Consider B1, for which the binding entry is given as “binds” in assay [1], “binds” in assay [2] and “no binding” in assay [3].
